Results deposited as PubChem BioAssay AID1159578 (Peter MacCallum Cancer Centre, 2015).

Test: 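siRNA pools altering how lymphatic endothelial cells close a scratch wound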 (primary screen)
System: human lymphatic endothelial cells
Reagent: siRNA pool against human genes, 40 nM
Timing: 48 h after transfection
Detection: 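High-content imaging of dye-stained cells in a scratch assay measures filled wound area and nuclei per well; duplicate means given as ratio to mock and robust z-score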
Direction: migration robust z-score: higher = faster migration into the scratch; migration relative to mock: higher = more scratch area covered than mock; nuclei per well: higher = more cells in the well
Call rule: 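Migration changed when robust z exceeds 2 or falls below -2 and mean nuclei number is at least 3300; otherwise not called changed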
Calls: active = migration changed; inactive = no migration change, or too few cells
The whole screen tested about 18,000 reagents; below is a part drawn at random. About 1,030 of them (5.7%) were called active. 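Inactive calls also include pools with fewer than 3300 nuclei, whose migration was not assessed.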 Raw values are not corrected between plates. Entries without a mark were called inactive. Reagents against one gene are numbered here.

| gene | reagent no. | migration robust z-score | migration class with cell-count check | migration relative to mock | nuclei per well, duplicate mean |
| --- | --- | --- | --- | --- | --- |
| AGO1 (GeneID 26523) | 1 | -0.21 | migration z between -2 and 2; enough cells | 0.76 | 5696 |
| BANF2 (GeneID 140836) | 1 | -0.9 | migration z between -2 and 2; enough cells | 0.65 | 6604 |
| BBLN (GeneID 79095) | 1 | 0.58 | migration z between -2 and 2; enough cells | 1.04 | 5832 |
| FANCD2 (GeneID 2177) | 1 | -0.08 | migration z between -2 and 2; enough cells | 0.87 | 5634 |
| TGDS (GeneID 23483) | 1 | 1.64 | migration z between -2 and 2; enough cells | 1.12 | 6305 |
| RBM43 (GeneID 375287) | 1 | -0.96 | migration z between -2 and 2; enough cells | 0.64 | 5529 |
| CACNA1E (GeneID 777) | 1 | -2.08 (active) | migration z below -2; enough cells | 0.4 | 4969 |
| ARG1 (GeneID 383) | 1 | -0.05 | migration z between -2 and 2; enough cells | 0.8 | 5714 |
| ICA1L (GeneID 130026) | 1 | -0.15 | migration z between -2 and 2; enough cells | 0.84 | 6557 |
| FAM209A (GeneID 200232) | 1 | 0.2 | migration z between -2 and 2; enough cells | 0.94 | 5486 |
| PALB2 (GeneID 79728) | 1 | 0.34 | under 3300 nuclei; migration not judged | 0.98 | 3167 |
| ZMYND8 (GeneID 23613) | 1 | 0.99 | migration z between -2 and 2; enough cells | 1 | 6157 |
| SDR39U1 (GeneID 56948) | 1 | 0.88 | migration z between -2 and 2; enough cells | 1.12 | 7344 |
| CEP162 (GeneID 22832) | 1 | 1.63 | migration z between -2 and 2; enough cells | 1.3 | 5085 |
| PYDC2 (GeneID 152138) | 1 | -1.98 | under 3300 nuclei; migration not judged | 0.38 | 3274 |
| BIN2 (GeneID 51411) | 1 | 0.94 | migration z between -2 and 2; enough cells | 1.12 | 3709 |
| TGM3 (GeneID 7053) | 1 | -0.54 | migration z between -2 and 2; enough cells | 0.7 | 5056 |
| VASN (GeneID 114990) | 1 | -0.94 | migration z between -2 and 2; enough cells | 0.64 | 5445 |
| SMC3 (GeneID 9126) | 1 | 0.44 | migration z between -2 and 2; enough cells | 1 | 6043 |
| RMND5A (GeneID 64795) | 1 | -1.81 | migration z between -2 and 2; enough cells | 0.42 | 4758 |
| RRP36 (GeneID 88745) | 1 | 0.12 | migration z between -2 and 2; enough cells | 0.92 | 5108 |
| HTRA1 (GeneID 5654) | 1 | -1.32 | migration z between -2 and 2; enough cells | 0.55 | 5360 |
| VAMP4 (GeneID 8674) | 1 | -0.66 | migration z between -2 and 2; enough cells | 0.72 | 4975 |
| GPR26 (GeneID 2849) | 1 | 0 | migration z between -2 and 2; enough cells | 0.8 | 5253 |
| CGB5 (GeneID 93659) | 1 | 1.43 | migration z between -2 and 2; enough cells | 1.26 | 5874 |
| SFTPA1 (GeneID 653509) | 1 | 0.22 | migration z between -2 and 2; enough cells | 0.94 | 5616 |
| SFTPA1 (GeneID 653509) | 2 | 0.6 | migration z between -2 and 2; enough cells | 0.92 | 4182 |
| PCNX4 (GeneID 64430) | 1 | -0.82 | migration z between -2 and 2; enough cells | 0.67 | 6878 |
| SCGB1D2 (GeneID 10647) | 1 | 0.82 | migration z between -2 and 2; enough cells | 1.1 | 5736 |
| SLC29A3 (GeneID 55315) | 1 | -2.1 (active) | migration z below -2; enough cells | 0.4 | 4356 |
| STAM2 (GeneID 10254) | 1 | 1.15 | migration z between -2 and 2; enough cells | 1.18 | 6344 |
| NCCRP1 (GeneID 342897) | 1 | -2.15 (active) | migration z below -2; enough cells | 0.39 | 5118 |
| RBKS (GeneID 64080) | 1 | -3.17 | under 3300 nuclei; migration not judged | 0.2 | 2982 |
| KLRC1 (GeneID 3821) | 1 | 0.21 | migration z between -2 and 2; enough cells | 0.94 | 4576 |
| NRAP (GeneID 4892) | 1 | 1.62 | migration z between -2 and 2; enough cells | 1.31 | 5749 |
| MYOCD (GeneID 93649) | 1 | 0.02 | migration z between -2 and 2; enough cells | 0.81 | 6422 |
| PDILT (GeneID 204474) | 1 | -0.87 | migration z between -2 and 2; enough cells | 0.66 | 6390 |
| DDX47 (GeneID 51202) | 1 | -0.13 | migration z between -2 and 2; enough cells | 0.78 | 6772 |
| STK32A (GeneID 202374) | 1 | 0 | migration z between -2 and 2; enough cells | 0.8 | 5953 |
| TOM1 (GeneID 10043) | 1 | -2.08 (active) | migration z below -2; enough cells | 0.4 | 5044 |
| SUN5 (GeneID 140732) | 1 | 1.98 | migration z between -2 and 2; enough cells | 1.4 | 6270 |
| SLC34A1 (GeneID 6569) | 1 | -0.75 | migration z between -2 and 2; enough cells | 0.66 | 3954 |
| ZNF267 (GeneID 10308) | 1 | -0.42 | migration z between -2 and 2; enough cells | 0.77 | 4656 |
| WDR77 (GeneID 79084) | 1 | -1.28 | migration z between -2 and 2; enough cells | 0.55 | 6842 |
| SLFN12 (GeneID 55106) | 1 | -3.11 (active) | migration z below -2; enough cells | 0.2 | 6042 |
| PCF11 (GeneID 51585) | 1 | 0.32 | migration z between -2 and 2; enough cells | 0.97 | 5276 |
| THUMPD1 (GeneID 55623) | 1 | 0.26 | migration z between -2 and 2; enough cells | 0.96 | 5352 |
| MEF2D (GeneID 4209) | 1 | -0.28 | migration z between -2 and 2; enough cells | 0.75 | 4720 |
| C14orf184 (retired record) (GeneID 650662) | 1 | -1.74 | migration z between -2 and 2; enough cells | 0.43 | 6094 |
| RABGEF1 (GeneID 27342) | 1 | -0.08 | migration z between -2 and 2; enough cells | 0.87 | 5745 |
| PRDM10 (GeneID 56980) | 1 | 0.37 | migration z between -2 and 2; enough cells | 0.98 | 6160 |
| ZNF140 (GeneID 7699) | 1 | 2.12 (active) | migration z above 2; enough cells | 1.44 | 6282 |
| NECTIN4 (GeneID 81607) | 1 | -0.75 | migration z between -2 and 2; enough cells | 0.66 | 5956 |
| SLC35B1 (GeneID 10237) | 1 | -0.15 | migration z between -2 and 2; enough cells | 0.85 | 6092 |
| ABHD4 (GeneID 63874) | 1 | 0.18 | migration z between -2 and 2; enough cells | 0.84 | 6290 |
| MANBAL (GeneID 63905) | 1 | 0.64 | migration z between -2 and 2; enough cells | 1.06 | 5085 |
| ZNF174 (GeneID 7727) | 1 | -0.42 | migration z between -2 and 2; enough cells | 0.72 | 5102 |
| FERMT2 (GeneID 10979) | 1 | -0.46 | migration z between -2 and 2; enough cells | 0.77 | 5358 |
| NOL10 (GeneID 79954) | 1 | 0.66 | migration z between -2 and 2; enough cells | 1.06 | 7380 |
| IGFBP3 (GeneID 3486) | 1 | -0.73 | migration z between -2 and 2; enough cells | 0.7 | 5799 |
| RBBP5 (GeneID 5929) | 1 | 0.32 | migration z between -2 and 2; enough cells | 0.97 | 5940 |
| MAFF (GeneID 23764) | 1 | -1.43 | migration z between -2 and 2; enough cells | 0.53 | 5029 |
| IFNA2 (GeneID 3440) | 1 | -0.02 | migration z between -2 and 2; enough cells | 0.88 | 5816 |
| SH3BGRL2 (GeneID 83699) | 1 | 2.84 (active) | migration z above 2; enough cells | 1.63 | 5858 |
| ADORA2B (GeneID 136) | 1 | 0.78 | migration z between -2 and 2; enough cells | 0.96 | 6371 |
| FBXO17 (GeneID 115290) | 1 | 1.03 | migration z between -2 and 2; enough cells | 1 | 5417 |
| FAM9C (GeneID 171484) | 1 | -2.54 (active) | migration z below -2; enough cells | 0.23 | 4386 |
| CFAP251 (GeneID 144406) | 1 | 3.17 (active) | migration z above 2; enough cells | 1.7 | 5830 |
| H1-10 (GeneID 8971) | 1 | -0.58 | migration z between -2 and 2; enough cells | 0.74 | 5870 |
| LCMT2 (GeneID 9836) | 1 | 0.21 | migration z between -2 and 2; enough cells | 0.84 | 5422 |
| OR9K2 (GeneID 441639) | 1 | 0.38 | migration z between -2 and 2; enough cells | 0.99 | 6512 |
| SLC25A28 (GeneID 81894) | 1 | 0.14 | migration z between -2 and 2; enough cells | 0.92 | 5310 |
| EXTL2 (GeneID 2135) | 1 | 0.46 | migration z between -2 and 2; enough cells | 0.9 | 6460 |

Part of the list above in another layout:
MYOCD (GeneID 93649) — migration robust z-score = 0.02; migration class with cell-count check = migration z between -2 and 2; enough cells; migration relative to mock = 0.81; nuclei per well, duplicate mean = 6422
PDILT (GeneID 204474) — migration robust z-score = -0.87; migration class with cell-count check = migration z between -2 and 2; enough cells; migration relative to mock = 0.66; nuclei per well, duplicate mean = 6390
DDX47 (GeneID 51202) — migration robust z-score = -0.13; migration class with cell-count check = migration z between -2 and 2; enough cells; migration relative to mock = 0.78; nuclei per well, duplicate mean = 6772
